This is one part of the list. Most entries show no effect beyond the scatter of the controls.
compound: CN[C@@H]1C[C@H]2O[C@@](C)([C@@H]1OC)n1c3ccccc3c3c4c(c5c6ccccc6n2c5c31)C(=O)NC4 [staurosporine]; experiment: log2 fold change of tryptic peptide abundance, ligand vs vehicle (limited proteolysis) (log2 ratio); higher = more trypsin-susceptible (destabilized); details: ligand concentration: 20 uM; sample: mouse liver crude lysate; replicate design: treated separately

The chains behind the UniProt entries cited, without tags or fusion partners. Where a name states a change or a piece, a line headed by the entry shows the natural chain unless it says otherwise.
UniProt Q8CAY6: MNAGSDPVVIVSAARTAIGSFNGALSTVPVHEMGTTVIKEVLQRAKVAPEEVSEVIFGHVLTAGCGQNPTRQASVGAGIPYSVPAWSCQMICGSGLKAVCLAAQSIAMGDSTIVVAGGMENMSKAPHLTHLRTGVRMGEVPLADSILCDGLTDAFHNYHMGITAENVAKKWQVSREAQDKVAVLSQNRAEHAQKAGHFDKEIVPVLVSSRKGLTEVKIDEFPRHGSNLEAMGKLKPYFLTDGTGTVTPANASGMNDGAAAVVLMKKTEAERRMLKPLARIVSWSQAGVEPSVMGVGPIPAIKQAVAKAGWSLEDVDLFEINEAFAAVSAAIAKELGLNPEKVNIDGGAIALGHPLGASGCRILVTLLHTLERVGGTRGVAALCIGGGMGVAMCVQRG
UniProt Q8CHY6: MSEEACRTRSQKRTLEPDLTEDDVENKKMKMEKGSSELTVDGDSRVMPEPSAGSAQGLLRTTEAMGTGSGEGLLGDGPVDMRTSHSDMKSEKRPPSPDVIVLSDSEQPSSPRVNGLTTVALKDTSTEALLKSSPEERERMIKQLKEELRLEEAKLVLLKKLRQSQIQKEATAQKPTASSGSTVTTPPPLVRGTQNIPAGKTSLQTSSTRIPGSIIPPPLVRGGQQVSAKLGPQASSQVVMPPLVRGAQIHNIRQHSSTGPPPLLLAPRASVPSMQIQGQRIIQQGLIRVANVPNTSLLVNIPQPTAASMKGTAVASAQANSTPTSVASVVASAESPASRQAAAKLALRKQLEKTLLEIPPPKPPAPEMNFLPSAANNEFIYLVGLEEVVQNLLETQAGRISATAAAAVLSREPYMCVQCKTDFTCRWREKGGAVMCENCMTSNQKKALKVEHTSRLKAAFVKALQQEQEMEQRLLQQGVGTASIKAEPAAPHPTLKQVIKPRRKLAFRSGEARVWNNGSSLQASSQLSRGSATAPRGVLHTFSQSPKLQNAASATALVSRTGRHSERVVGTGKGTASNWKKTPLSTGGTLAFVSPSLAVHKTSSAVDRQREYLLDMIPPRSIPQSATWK
UniProt Q8CB62: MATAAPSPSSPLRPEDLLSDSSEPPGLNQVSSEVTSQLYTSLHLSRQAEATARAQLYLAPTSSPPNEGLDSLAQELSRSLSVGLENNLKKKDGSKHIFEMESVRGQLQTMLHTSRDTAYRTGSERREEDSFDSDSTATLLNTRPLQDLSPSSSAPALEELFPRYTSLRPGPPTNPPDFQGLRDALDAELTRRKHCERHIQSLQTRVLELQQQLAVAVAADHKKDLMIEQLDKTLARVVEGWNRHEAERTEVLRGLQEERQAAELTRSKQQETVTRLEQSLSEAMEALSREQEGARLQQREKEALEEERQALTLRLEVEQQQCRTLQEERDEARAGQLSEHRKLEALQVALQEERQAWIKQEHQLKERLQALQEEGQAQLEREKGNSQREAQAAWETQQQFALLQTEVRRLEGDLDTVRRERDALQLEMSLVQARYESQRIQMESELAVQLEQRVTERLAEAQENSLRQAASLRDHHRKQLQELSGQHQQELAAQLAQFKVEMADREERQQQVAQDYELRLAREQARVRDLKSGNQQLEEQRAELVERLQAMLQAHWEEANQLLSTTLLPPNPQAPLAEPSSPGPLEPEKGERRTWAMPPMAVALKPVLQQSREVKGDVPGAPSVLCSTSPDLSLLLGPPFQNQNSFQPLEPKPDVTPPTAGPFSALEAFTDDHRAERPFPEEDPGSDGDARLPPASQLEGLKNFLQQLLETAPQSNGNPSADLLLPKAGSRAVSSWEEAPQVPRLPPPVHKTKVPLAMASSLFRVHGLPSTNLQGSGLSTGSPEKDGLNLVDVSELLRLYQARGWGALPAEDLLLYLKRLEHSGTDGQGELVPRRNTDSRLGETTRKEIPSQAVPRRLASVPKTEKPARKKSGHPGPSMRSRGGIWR
UniProt Q8CIZ8, whole entry: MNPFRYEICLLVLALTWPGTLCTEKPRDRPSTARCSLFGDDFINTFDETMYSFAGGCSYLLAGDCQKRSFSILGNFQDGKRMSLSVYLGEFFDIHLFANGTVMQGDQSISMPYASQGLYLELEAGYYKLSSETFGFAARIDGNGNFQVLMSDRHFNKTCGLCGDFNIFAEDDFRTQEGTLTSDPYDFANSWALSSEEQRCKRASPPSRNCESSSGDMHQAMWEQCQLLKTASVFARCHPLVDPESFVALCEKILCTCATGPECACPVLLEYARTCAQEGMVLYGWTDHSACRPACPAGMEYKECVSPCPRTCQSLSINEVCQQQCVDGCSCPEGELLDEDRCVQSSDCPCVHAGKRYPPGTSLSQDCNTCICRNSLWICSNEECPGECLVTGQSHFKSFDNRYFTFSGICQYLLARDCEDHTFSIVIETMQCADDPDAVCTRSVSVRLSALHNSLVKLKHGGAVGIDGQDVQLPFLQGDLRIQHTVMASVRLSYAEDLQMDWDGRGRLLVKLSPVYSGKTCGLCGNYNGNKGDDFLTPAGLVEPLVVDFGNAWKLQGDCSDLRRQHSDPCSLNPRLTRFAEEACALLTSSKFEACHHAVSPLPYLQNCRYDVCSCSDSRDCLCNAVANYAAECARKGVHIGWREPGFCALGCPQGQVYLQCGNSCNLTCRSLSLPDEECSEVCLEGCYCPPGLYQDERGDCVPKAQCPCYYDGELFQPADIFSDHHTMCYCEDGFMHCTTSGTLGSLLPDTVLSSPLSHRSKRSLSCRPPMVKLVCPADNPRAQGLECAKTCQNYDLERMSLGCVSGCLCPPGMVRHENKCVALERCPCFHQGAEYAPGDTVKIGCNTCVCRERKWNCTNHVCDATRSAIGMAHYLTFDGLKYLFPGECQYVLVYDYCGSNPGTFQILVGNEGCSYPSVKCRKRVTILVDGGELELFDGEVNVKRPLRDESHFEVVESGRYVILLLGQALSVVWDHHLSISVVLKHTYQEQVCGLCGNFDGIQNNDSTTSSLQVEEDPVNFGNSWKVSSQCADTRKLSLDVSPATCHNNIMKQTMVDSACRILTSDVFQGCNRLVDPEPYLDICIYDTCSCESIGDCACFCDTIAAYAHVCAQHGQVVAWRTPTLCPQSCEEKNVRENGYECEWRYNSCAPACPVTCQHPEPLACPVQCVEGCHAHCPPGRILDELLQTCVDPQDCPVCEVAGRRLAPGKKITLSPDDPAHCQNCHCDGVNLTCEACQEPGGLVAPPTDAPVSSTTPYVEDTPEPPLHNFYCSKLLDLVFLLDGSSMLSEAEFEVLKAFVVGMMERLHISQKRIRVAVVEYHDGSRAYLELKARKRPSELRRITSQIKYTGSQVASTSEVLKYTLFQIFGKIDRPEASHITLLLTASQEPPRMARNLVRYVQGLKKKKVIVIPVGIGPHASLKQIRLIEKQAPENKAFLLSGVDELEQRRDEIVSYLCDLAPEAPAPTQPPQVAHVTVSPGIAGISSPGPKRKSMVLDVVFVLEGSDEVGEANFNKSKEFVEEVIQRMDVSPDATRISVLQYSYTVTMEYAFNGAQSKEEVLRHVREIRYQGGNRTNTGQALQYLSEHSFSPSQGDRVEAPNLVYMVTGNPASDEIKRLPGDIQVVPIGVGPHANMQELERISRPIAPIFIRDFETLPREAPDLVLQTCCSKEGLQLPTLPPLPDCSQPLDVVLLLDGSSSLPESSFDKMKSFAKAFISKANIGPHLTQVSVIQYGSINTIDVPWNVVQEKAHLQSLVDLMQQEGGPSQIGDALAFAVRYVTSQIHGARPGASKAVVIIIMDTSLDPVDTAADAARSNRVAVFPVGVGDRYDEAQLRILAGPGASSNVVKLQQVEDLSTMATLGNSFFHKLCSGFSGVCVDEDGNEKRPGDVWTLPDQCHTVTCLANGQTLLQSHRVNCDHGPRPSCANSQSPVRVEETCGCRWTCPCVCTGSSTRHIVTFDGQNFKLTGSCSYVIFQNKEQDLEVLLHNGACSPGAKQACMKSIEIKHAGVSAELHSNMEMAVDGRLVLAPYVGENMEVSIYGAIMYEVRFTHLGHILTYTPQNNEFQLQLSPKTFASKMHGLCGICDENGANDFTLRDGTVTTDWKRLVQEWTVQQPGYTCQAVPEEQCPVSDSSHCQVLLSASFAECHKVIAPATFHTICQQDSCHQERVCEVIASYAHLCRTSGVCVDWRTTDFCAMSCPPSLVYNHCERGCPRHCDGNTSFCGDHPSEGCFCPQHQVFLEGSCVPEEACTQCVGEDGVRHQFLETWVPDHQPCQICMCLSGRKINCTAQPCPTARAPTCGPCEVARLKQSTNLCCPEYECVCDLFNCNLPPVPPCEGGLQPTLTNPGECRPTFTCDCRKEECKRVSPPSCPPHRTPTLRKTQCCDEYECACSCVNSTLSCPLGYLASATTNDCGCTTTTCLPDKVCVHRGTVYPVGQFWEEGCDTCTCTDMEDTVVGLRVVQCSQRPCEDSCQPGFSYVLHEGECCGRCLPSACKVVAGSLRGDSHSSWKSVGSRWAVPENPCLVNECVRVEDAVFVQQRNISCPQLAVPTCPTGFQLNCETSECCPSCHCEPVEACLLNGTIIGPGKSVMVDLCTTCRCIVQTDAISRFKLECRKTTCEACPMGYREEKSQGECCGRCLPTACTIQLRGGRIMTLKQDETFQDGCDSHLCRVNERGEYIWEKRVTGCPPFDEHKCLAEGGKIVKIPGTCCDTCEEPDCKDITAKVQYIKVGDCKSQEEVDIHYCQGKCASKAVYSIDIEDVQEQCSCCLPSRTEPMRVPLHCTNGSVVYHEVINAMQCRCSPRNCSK
UniProt Q8CHQ9: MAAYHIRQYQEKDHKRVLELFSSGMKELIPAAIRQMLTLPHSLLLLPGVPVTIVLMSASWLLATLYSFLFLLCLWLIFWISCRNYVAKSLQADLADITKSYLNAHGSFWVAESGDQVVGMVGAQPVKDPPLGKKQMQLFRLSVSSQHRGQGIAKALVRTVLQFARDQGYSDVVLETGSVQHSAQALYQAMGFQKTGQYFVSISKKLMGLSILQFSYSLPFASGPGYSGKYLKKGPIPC
UniProt Q8K0P3: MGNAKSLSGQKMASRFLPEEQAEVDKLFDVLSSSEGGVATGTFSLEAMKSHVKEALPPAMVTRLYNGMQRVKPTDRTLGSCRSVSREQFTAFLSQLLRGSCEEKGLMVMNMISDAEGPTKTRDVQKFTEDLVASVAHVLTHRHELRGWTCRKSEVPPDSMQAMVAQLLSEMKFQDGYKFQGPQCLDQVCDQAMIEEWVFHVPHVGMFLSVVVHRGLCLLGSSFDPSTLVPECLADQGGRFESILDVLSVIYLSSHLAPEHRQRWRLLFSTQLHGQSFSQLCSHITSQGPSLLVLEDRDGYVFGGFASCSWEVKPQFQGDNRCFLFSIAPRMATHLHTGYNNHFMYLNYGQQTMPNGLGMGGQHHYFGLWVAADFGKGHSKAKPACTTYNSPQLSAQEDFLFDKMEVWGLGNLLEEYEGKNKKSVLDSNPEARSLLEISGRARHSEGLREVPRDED
UniProt Q8CDI7: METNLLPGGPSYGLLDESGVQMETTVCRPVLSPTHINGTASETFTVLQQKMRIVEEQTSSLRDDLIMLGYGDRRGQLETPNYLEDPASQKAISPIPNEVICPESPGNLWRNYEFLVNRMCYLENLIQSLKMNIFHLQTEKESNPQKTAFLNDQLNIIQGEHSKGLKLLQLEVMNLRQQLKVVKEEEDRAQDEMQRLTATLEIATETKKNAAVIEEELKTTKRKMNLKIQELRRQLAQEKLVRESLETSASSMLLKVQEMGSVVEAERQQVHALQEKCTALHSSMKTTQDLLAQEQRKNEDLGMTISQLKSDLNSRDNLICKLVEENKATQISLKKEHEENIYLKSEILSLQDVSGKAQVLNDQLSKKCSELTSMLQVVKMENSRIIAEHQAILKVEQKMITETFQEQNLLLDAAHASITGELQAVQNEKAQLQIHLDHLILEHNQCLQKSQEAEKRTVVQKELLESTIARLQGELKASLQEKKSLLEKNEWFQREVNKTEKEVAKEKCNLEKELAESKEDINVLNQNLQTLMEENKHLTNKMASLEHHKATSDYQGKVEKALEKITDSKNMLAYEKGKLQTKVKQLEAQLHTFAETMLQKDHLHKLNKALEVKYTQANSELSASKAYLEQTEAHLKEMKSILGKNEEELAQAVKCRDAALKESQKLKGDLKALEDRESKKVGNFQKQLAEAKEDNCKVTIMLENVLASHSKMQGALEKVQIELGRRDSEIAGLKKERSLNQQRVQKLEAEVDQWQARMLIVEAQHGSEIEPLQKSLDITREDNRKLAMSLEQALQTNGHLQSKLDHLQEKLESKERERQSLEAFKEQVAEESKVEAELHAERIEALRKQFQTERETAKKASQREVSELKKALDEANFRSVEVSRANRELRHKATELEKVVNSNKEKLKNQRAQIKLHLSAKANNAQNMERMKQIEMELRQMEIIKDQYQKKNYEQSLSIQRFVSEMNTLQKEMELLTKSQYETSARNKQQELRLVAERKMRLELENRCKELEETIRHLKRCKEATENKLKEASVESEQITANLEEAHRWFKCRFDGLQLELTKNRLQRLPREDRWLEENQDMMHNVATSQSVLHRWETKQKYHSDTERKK

Target	log2 fold change
UniProt Q8CGN4 (peptide sequence: HLIPQESR, peptide start residue: 1370)	0.237
UniProt Q8CDJ3 (peptide sequence: KLCNSEFCGENLSK, peptide start residue: 328)	-0.201
UniProt Q8CAY6 (peptide sequence: VAVLSQNR, peptide start residue: 181)	-0.107
UniProt Q8CDA1 (peptide sequence: VVMEQQLKK, peptide start residue: 475)	0.437
UniProt Q8CIG9 (peptide sequence: ILQPAVPVAVLR, peptide start residue: 270)	-0.194
UniProt Q8CIE4 (peptide sequence: SGGGPLEGLR, peptide start residue: 196)	-0.464
UniProt Q8CHY6 (peptide sequence: ASVPSMQIQGQR, peptide start residue: 269)	0.193
UniProt Q8CE90 (peptide sequence: HMLGLPSTLFTPR, peptide start residue: 89)	-0.142
UniProt Q8CHK3 (peptide sequence: EIASGFHK, peptide start residue: 129)	0.169
UniProt Q8CBC7 (peptide sequence: VEDNEIHC, peptide start residue: 317)	0.0276
UniProt Q8CHU3 (peptide sequence: LQMALEESR, peptide start residue: 260)	-0.0162
UniProt Q8CF60 (peptide sequence: SFRQGMHLTR, peptide start residue: 580)	0.253
UniProt Q8K0L9 (peptide sequence: DHHMEDPSWITR, peptide start residue: 279)	-0.0771
UniProt Q8CB62 (peptide sequence: HIFEMESVR, peptide start residue: 96)	0.394
UniProt Q8CIZ8 (peptide sequence: QHSDPCSLNPR, peptide start residue: 565)	-0.2
UniProt Q8JZS9 (peptide sequence: TMEVMRLPDQGNK, peptide start residue: 130)	0.0873

Two entries picked at random from the list so far:
Target	log2 fold change
UniProt Q8CHU3 (peptide sequence: LQMALEESR, peptide start residue: 260)	-0.0162
UniProt Q8CDJ3 (peptide sequence: KLCNSEFCGENLSK, peptide start residue: 328)	-0.201

(further entries)

Target	log2 fold change
UniProt Q8JZP9 (peptide sequence: RLEEEFLANAR, peptide start residue: 523)	-0.4
UniProt Q8CHQ9 (peptide sequence: YLKKGPIPC, peptide start residue: 230)	-0.114
UniProt Q8CFW7 (peptide sequence: AHHEDQEGEEGTQAQER, peptide start residue: 219)	-0.473
UniProt Q8CFA2 (peptide sequence: DKDLALMQDKVK, peptide start residue: 150)	-0.419
UniProt Q8K0P3 (peptide sequence: LYNGMQR, peptide start residue: 64)	0.0688
UniProt Q8CB87 (peptide sequence: ERGFVTR, peptide start residue: 59)	-0.0416
UniProt Q8CDM1 (peptide sequence: FDSVGGLSSHIAALK, peptide start residue: 80)	-0.478
UniProt Q8K023 (peptide sequence: IEDGTVKR, peptide start residue: 69)	-0.279
UniProt Q8CDI7 (peptide sequence: HLTNKMASLEHHK, peptide start residue: 537)	-0.34
UniProt Q8CES0 (peptide sequence: VLSAAEAAAPDGASK, peptide start residue: 105)	0.12
UniProt Q8CH09 (peptide sequence: GDMFVGPSFR, peptide start residue: 79)	0.333
UniProt Q8CDG5 (peptide sequence: TAEGNPTGGLVGLR, peptide start residue: 621)	0.115
UniProt Q8JZU0 (peptide sequence: WHDGHQFCSK, peptide start residue: 162)	0.507
UniProt Q8CDD8 (peptide sequence: FGNSGLGFGGGAHSQAPEK, peptide start residue: 100)	0.264
UniProt Q8CBA2 (peptide sequence: LATLCSNLYHR, peptide start residue: 111)	-0.136
